In patent publication US20090230300A1, “RAPID DETECTION OF VOLATILE ORGANIC COMPOUNDS FOR IDENTIFICATION OF BACTERIA IN A SAMPLE” (priority 2007, published 2009):

Key:
Conditions in all cases: headspace of culture
Klebsiella pneumonia = test: Headspace VOC detection by dual GC-MS/DMS in Klebsiella pneumonia culture; set-up: key: Y = detectable; ND = not detectable
Staphylococcus aureus = test: Headspace VOC detection by dual GC-MS/DMS in Staphylococcus aureus culture; set-up: key: Y = detectable; ND = not detectable
E. Coli = test: Headspace VOC detection by dual GC-MS/DMS in E. coli culture; set-up: species or system Escherichia coli; key: Y = detectable; ND = not detectable

Row | Structure (SMILES) | VOC detectable in Klebsiella (Klebsiella pneumonia) | VOC detectable in Staphylcoccus (Staphylococcus aureus) | VOC detectable in E. Coli (E. Coli)
1 | CCCCCCCC(C)=O [2-nonanone] | Y |  | 
2 | CC(=O)C(C)O (stereo not shown) [3-hydroxy-2-butanone] |  | Y | 
3 | CCCCCC(C)=O [2-heptanone] | Y |  | 
4 | CC(=O)C(C)=O [2,3-butanedione] |  | Y | 
5 | O=CCc1ccccc1 [benzeneacetaldehyde] |  | Y | 
6 | CS [methanethiol] | Y |  | Y
